Source: patent US20250154171A1, “RAS INHIBITORS” (Revolution Medicines, Inc., priority 2023, published 2025)
Some of these results come from one statement about several compounds together.

Amino acid sequences for entries named in this document (tags omitted). A change or cut given only in a name is not applied to a line headed by its entry. Residues count along the entry.
UniProt P01116, 1-188 isoform P01116-2 G12A: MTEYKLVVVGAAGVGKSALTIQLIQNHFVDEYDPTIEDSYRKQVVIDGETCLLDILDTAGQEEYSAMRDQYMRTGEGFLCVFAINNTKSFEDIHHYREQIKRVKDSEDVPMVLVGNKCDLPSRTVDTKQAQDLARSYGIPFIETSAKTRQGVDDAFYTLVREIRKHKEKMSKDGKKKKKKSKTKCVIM
UniProt P01116, 1-188 isoform P01116-2 G12V: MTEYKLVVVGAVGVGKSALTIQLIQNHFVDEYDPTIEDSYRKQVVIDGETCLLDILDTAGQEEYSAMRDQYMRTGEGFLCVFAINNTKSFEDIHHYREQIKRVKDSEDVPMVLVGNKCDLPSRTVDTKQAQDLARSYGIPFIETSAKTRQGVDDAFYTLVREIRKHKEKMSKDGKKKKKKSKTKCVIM
UniProt P62937, whole entry: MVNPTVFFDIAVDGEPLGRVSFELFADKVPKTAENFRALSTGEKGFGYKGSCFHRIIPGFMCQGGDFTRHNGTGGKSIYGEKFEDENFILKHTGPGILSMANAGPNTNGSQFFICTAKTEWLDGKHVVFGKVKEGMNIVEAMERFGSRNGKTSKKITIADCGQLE

Columns and labels:
[1] = system: Capan-1 (K-Ras G12V); test: CellTiter-Glo cell viability assay, Capan-1; assay type: cell-based, human; details: 5-day treatment, Capan-1 and/or NCI-H2009 versus A375
[2] = target: K-RasG12A (Homo sapiens, UniProt P01116+P62937, G12A); test: Disruption of BRAF RBD interaction with K-Ras (TR-FRET / MOA assay), K-RasG12A; assay type: biochemical; details: TR-FRET with cyclophilin A and GST-BRAF RBD, read-out: IC50 with respect to K-RasG12A (disruption of BRAF RBD interaction)
[3] = target: K-RasG12V (Homo sapiens, UniProt P01116+P62937, G12V); test: Disruption of BRAF RBD interaction with K-Ras (TR-FRET / MOA assay), K-RasG12V; assay type: biochemical; details: TR-FRET with cyclophilin A and GST-BRAF RBD, read-out: IC50 with respect to K-RasG12V (disruption of BRAF RBD interaction)

Row | Structure (SMILES) | IC50 [2] | IC50 [3] | decrease in cell viability with respect to Capan-1 and/or NCI-H2009 versus wild-type KRAS (A375) [1]
1 | CO[C@@H](C)c1ncc(N2CCN(C3CC3)CC2)cc1-c1c2c3cc(ccc3n1C1CN(C3CC3)C1)-c1coc(n1)[C@@H](N1CC3(CCN3C)C1)[C@H](NC(=O)[C@H]1[C@H](C)[C@@H]1C)C(=O)N1CCC[C@H](N1)C(=O)OCC(C)(C)C2 (atropisomer, axis not shown) [Example A1175] | < 1000 nM | < 1000 nM | greater decrease in cell viability
2 | CO[C@@H](C)c1ncccc1-c1c2c3cc(ccc3n1[C@H]1C[C@@H](C#N)C1)-c1csc(n1)[C@@H](N1CC3(CCCN3C)C1)[C@H](NC(=O)[C@H]1[C@H](C)[C@@H]1C)C(=O)N1CCC[C@H](N1)C(=O)OCC(C)(C)C2 (atropisomer, axis not shown) [Example A1176] | < 1000 nM | < 1000 nM | greater decrease in cell viability
3 | CO[C@@H](C)c1ncccc1-c1c2c3cc(ccc3n1[C@H]1C[C@H](C#N)C1)-c1csc(n1)[C@@H](N1CC3(CCCN3C)C1)[C@H](NC(=O)[C@H]1[C@H](C)[C@@H]1C)C(=O)N1CCC[C@H](N1)C(=O)OCC(C)(C)C2 (atropisomer, axis not shown) [Example A1177] | < 1000 nM | < 1000 nM | greater decrease in cell viability
4 | CO[C@@H](C)c1ncccc1-c1c2c3cc(ccc3n1[C@H]1C[C@H](C#N)C1)-c1csc(n1)[C@@H](N1CC3(CCN3)C1)[C@H](NC(=O)[C@H]1[C@H](C)[C@@H]1C)C(=O)N1CCC[C@H](N1)C(=O)OCC(C)(C)C2 (atropisomer, axis not shown) [Example A1178] | < 1000 nM | < 1000 nM | greater decrease in cell viability

Continued, in another order:

Row | IC50 [2] | IC50 [3] | Structure (SMILES) | decrease in cell viability with respect to Capan-1 and/or NCI-H2009 versus wild-type KRAS (A375) [1]
5 | < 1000 nM | < 1000 nM | CO[C@@H](C)c1ncc(N2CCN(C3CC3)CC2)cc1-c1c2c3cc(ccc3n1C1CN(C3CC3)C1)-c1csc(n1)[C@@H](N1CC3(CCN3C)C1)[C@H](NC(=O)[C@H]1[C@H](C)[C@@H]1C)C(=O)N1CCC[C@H](N1)C(=O)OCC(C)(C)C2 (atropisomer, axis not shown) [Example A1169] | greater decrease in cell viability
6 | < 1000 nM | < 1000 nM | CO[C@@H](C)c1ncc(N2CCN(C3CC3)CC2)cc1-c1c2c3cc(ccc3n1C1CN(C3CC3)C1)-c1csc(n1)[C@@H](N1CC3(CCN3C)C1)[C@H](NC(=O)[C@@H]1[C@@H](C)[C@H]1c1ccncn1)C(=O)N1CCC[C@H](N1)C(=O)OCC(C)(C)C2 (atropisomer, axis not shown) [Example A1170] | greater decrease in cell viability
7 | < 1000 nM | < 1000 nM | CO[C@@H](C)c1ncccc1-c1c2c3cc(ccc3n1C1CC3(COC3)C1)-c1csc(n1)[C@@H](N1CC3(CCCN3C)C1)[C@H](NC(=O)[C@@H]1[C@@H](C)[C@H]1c1ccncn1)C(=O)N1CCC[C@H](N1)C(=O)OCC(C)(C)C2 (atropisomer, axis not shown) [Example A1171] | greater decrease in cell viability
8 | < 1000 nM | < 1000 nM | CO[C@@H](C)c1ncccc1-c1c2c3cc(ccc3n1[C@H]1C[C@H](C#N)C1)-c1csc(n1)[C@@H](N1CC3(CCCN3C)C1)[C@H](NC(=O)[C@@H]1[C@@H](C)[C@H]1c1ccncn1)C(=O)N1CCC[C@H](N1)C(=O)OCC(C)(C)C2 (atropisomer, axis not shown) [Example A1172] | greater decrease in cell viability
9 | < 1000 nM | < 1000 nM | CO[C@@H](C)c1ncccc1-c1c2c3cc(ccc3n1C1COC1)-c1csc(n1)[C@@H](N1CC3(CCCN3C)C1)[C@H](NC(=O)[C@@H]1[C@@H](C)[C@H]1c1ccncn1)C(=O)N1CCC[C@H](N1)C(=O)OCC(C)(C)C2 (atropisomer, axis not shown) [Example A1173] | greater decrease in cell viability
